This is an account of results in patent US20080207643A1, “Composition for Treating Hyperlipaemia” (priority 2004, published 2008).

Test [1] has as its system plasma concentration of methyl dihydroxyl valeric acid (MVA). Particulars: 80 mg/d; cited from earlier work.
Another test relates to normal rats. The test is described as follows: Effects on the blood lipid level in the normal rats. The class given is in vivo, Wistar rats. The note with it: gavage 4 days. As to the method: Wistar rats, bred by the Medical Experimental Animal Centre of Chinese Academy of Military Medical Sciences, certificate No. […] By calculating in accordance with the principle of dosage equivalent per body surface area, the above mentioned generally used dosage for human was converted into the dosage for rats of about 50 mg/kg/day. […] By calculating in accordance with the principle of dosage equivalent per body surface area, the above mentioned generally used dosage for human was converted into the dosage for rats of about 0.85 mg/kg/day.

The test system of a further test is hyperlipemia patients. Particulars: 80 mg/d, 22 hyperlipemia patients; cited from earlier work.
Test [2] concerns hyperlipemia rat model. Description: Comparison of the different formulations of acipimox in combination with atorvastatin calcium on hyperlipemia of rats. Format: in vivo, Wistar rats. The note with it: comparison test, gavage 14 days. The text has this: The level of serum total cholesterol level was respectively measured before grouping, and then randomly grouping by following the balance principle. Each group included 10 rats.

The subject of test [3] is hyperlipemia rat model. Description: Effects on the blood lipid level in hyperlipemia model rats (high lipid containing feed). Format: in vivo, Wistar rats. The note with it: gavage 14 days. An excerpt: Each group included 10 rats. […] The measurement is the same as the experiment conducted on normal rats as described in section 5.4.

Take `CC(C)c1c(C(=O)Nc2ccccc2)c(-c2ccccc2)c(-c2ccc(F)cc2)n1CC[C@@H](O)C[C@@H](O)CC(=O)O` [Atorvastatin calcium, calcium [R-(R′,R′)]2-(4-fluorophenyl)-βδ-dihydroxyl-5-(1-methylethyl)-3-phenyl-4-[aniline]carbonyl]-1-hydro-pyrrolyl-1-heptanoate trihydrate]: the “reduce the plasma concentration of methyl dihydroxyl valeric acid (MVA)” value in test [1] is 59%. Moreover, the High density lipoprotein-cholesterol in the test with normal rats (atorvastatin calcium 2.5 mg/kg) was 0.99 ± 0.11 mmol/L; with normal rats (atorvastatin calcium 5 mg/kg), 0.96 ± 0.11 mmol/L; in the test on normal rats (atorvastatin calcium 10 mg/kg), 1.03 ± 0.24 mmol/L; in the test on normal rats (atorvastatin calcium 20 mg/kg), 1.05 ± 0.13 mmol/L; with normal rats (atorvastatin calcium 30 mg/kg) it was 1.08 ± 0.18 mmol/L. Moreover, the Low density lipoprotein-cholesterol with normal rats (atorvastatin calcium 2.5 mg/kg) was 0.30 ± 0.14 mmol/L; in the test with normal rats (atorvastatin calcium 5 mg/kg), 0.25 ± 0.16 mmol/L; in the test with normal rats (atorvastatin calcium 10 mg/kg) it was 0.23 ± 0.09 mmol/L; in the test with normal rats (atorvastatin calcium 20 mg/kg) it was 0.21 ± 0.09 mmol/L; with normal rats (atorvastatin calcium 30 mg/kg), 0.19 ± 0.12 mmol/L; with hyperlipemia rat model [2] (atorvastatin calcium 10 mg/kg) it was 7.30 ± 1.88 mmol/L. Further, the Low density lipoprotein-cholesterol in the test on hyperlipemia rat model [2] (atorvastatin calcium 20 mg/kg) is on record as 6.80 ± 1.66 mmol/L; with hyperlipemia rat model [3] (atorvastatin calcium 2.5 mg/kg) it was 8.87 ± 0.74 mmol/L; with hyperlipemia rat model [3] (atorvastatin calcium 5 mg/kg) it was 8.17 ± 0.80 mmol/L; in the test with hyperlipemia rat model [3] (atorvastatin calcium 10 mg/kg), 8.07 ± 0.55 mmol/L; in the test with hyperlipemia rat model [3] (atorvastatin calcium 20 mg/kg) it was 7.78 ± 0.26 mmol/L; with hyperlipemia rat model [3] (atorvastatin calcium 30 mg/kg), 7.98 ± 0.60 mmol/L. Moreover, the “decreases the plasma viscosity” value in the test with hyperlipemia patients is recorded as 10%.
